Binding data for 1 molecule are collected here from publication doi:10.1101/2021.10.25.465832.

Results are given in words; binding and its absence hold for the method and conditions named. Binding seen in cells or lysates may run through a third protein. Binding can be weak; no strength is given. Where a sequence is shown, tags or fusion partners need not be part of it.

For the experiment, the target named is N-domain of PhoP (PhoPN), M-PFC fusion (M. tuberculosis). In words: split reporter.

B1: SigE (M-PFC fusion, pUAB300-sigE) (protein, UniProt P9WGG7 1-257)
chain: MELLGGPRVGNTESQLCVADGDDLPTYCSANSEDLNITTITTLSPTSMSHPQQVRDDQWVEPSDQLQGTAVFDATGDKATMPSWDELVRQHADRVYRLAYRLSGNQHDAEDLTQETFIRVFRSVQNYQPGTFEGWLHRITTNLFLDMVRRRARIRMEALPEDYDRVPADEPNPEQIYHDARLGPDLQAALASLPPEFRAAVVLCDIEGLSYEEIGATLGVKLGTVRSRIHRGRQALRDYLAAHPEHGECAVHVNPVR
For B1, the binding result is “binds”.
